Measurements published in article doi:10.1101/108068.
Like-named read-outs stand apart in the source and are kept apart here. No constants are given. Whether binding was seen depends on the method and setting. In cells and extracts the contact can be indirect. Some results given as binding are weak or reduced against the parent protein; the word gives no strength. Where a sequence is shown, tags or fusion partners need not be part of it. Values belong to the molecule of their own block, whether it stands above or below them.

Amino acid sequences for entries named in this document (tags omitted).
UniProt P25694, whole entry: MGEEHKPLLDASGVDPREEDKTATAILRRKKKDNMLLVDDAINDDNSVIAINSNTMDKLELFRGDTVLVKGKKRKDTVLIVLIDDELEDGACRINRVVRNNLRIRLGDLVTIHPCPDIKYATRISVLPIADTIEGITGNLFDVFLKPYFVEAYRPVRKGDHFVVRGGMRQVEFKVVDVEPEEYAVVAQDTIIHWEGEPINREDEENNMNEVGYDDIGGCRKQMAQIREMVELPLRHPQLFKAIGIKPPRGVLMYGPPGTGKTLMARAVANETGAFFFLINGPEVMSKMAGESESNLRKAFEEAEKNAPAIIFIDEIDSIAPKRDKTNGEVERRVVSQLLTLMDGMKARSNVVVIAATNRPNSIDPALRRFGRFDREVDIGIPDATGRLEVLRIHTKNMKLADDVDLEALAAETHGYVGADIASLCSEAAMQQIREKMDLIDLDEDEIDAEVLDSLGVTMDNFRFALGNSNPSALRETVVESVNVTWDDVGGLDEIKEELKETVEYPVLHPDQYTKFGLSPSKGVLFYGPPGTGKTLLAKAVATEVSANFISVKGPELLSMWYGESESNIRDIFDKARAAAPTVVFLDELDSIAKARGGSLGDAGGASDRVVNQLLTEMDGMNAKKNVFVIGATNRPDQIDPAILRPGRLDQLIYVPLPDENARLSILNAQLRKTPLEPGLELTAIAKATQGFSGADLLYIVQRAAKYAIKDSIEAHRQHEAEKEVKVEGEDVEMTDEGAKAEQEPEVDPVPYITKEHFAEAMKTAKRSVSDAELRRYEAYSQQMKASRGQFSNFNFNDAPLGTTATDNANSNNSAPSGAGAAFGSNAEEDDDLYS

How the values were obtained:
Assay in all cases: co-IP
[1] = target: T1, FLAG-tagged full-length Ubp12 (S. cerevisiae) (UniProt P39538)
T1 sequence: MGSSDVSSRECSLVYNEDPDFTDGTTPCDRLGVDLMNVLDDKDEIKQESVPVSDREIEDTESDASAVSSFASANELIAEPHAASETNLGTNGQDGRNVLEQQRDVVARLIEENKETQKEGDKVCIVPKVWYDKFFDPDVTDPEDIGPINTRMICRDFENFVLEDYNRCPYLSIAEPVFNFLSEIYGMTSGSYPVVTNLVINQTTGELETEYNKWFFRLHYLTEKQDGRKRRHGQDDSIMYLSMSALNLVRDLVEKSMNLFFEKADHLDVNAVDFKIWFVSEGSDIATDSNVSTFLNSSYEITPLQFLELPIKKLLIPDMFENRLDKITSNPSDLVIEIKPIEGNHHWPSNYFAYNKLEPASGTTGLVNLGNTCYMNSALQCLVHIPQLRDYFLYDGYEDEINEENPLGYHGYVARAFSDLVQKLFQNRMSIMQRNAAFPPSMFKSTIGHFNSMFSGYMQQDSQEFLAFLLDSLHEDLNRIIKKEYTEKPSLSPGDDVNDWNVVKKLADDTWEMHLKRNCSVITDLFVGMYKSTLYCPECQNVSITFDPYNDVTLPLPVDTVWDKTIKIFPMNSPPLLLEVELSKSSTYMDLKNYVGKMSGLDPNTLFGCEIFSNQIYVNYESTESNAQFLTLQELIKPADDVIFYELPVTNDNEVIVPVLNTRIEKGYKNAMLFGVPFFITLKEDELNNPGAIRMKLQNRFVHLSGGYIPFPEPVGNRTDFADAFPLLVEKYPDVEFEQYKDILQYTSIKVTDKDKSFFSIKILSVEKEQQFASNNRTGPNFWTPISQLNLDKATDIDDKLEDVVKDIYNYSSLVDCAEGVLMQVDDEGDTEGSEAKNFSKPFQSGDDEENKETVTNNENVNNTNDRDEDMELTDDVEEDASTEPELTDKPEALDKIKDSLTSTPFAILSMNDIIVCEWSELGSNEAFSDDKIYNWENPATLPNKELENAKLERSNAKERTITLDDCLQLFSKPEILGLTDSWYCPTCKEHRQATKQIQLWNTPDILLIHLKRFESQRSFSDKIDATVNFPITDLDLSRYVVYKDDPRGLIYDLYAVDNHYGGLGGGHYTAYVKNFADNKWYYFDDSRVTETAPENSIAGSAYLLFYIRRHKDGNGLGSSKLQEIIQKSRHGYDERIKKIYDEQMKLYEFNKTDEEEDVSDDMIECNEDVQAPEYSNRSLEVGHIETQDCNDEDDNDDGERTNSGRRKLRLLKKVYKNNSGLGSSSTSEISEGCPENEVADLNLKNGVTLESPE

[2] = target: T1, FLAG-tagged full-length Ubp12 (S. cerevisiae); remark: listed apart in the source
[3] = target: Cdc48 (S. cerevisiae (endogenous in yeast)) (UniProt P25694)
[4] = target: T2, Rad23 (endogenous) (S. cerevisiae (endogenous in yeast)) (UniProt P32628)
T2 sequence: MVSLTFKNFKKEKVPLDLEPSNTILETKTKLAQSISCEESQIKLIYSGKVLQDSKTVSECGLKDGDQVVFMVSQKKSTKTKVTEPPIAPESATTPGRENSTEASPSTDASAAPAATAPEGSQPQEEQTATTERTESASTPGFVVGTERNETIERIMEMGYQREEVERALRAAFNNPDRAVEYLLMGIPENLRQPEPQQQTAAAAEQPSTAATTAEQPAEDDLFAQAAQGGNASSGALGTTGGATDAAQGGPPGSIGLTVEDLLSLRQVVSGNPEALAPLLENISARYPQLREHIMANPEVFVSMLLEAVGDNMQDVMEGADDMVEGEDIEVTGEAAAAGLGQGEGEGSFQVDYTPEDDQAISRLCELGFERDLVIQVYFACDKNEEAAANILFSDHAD

[5] = target: T3, full-length Rad23 expressed from a low-copy plasmid (S. cerevisiae) (UniProt P32628)
T3 sequence: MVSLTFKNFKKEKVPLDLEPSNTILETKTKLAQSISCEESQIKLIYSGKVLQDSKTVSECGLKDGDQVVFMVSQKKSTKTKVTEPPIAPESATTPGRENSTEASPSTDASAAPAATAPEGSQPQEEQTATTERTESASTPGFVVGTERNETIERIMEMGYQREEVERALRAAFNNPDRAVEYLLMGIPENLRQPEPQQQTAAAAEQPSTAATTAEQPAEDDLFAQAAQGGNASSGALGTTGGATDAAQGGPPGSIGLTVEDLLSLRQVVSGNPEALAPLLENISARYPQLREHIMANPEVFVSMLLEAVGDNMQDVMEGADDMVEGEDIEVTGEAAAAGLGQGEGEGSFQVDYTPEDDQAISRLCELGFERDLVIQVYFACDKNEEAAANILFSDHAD

binding [1]: binds
Molecule: Cdc48 (from UniProt P25694 1-835)

binding [2]: binds
B1: Rad23 (endogenous) (protein, UniProt P32628 1-398)
chain: MVSLTFKNFKKEKVPLDLEPSNTILETKTKLAQSISCEESQIKLIYSGKVLQDSKTVSECGLKDGDQVVFMVSQKKSTKTKVTEPPIAPESATTPGRENSTEASPSTDASAAPAATAPEGSQPQEEQTATTERTESASTPGFVVGTERNETIERIMEMGYQREEVERALRAAFNNPDRAVEYLLMGIPENLRQPEPQQQTAAAAEQPSTAATTAEQPAEDDLFAQAAQGGNASSGALGTTGGATDAAQGGPPGSIGLTVEDLLSLRQVVSGNPEALAPLLENISARYPQLREHIMANPEVFVSMLLEAVGDNMQDVMEGADDMVEGEDIEVTGEAAAAGLGQGEGEGSFQVDYTPEDDQAISRLCELGFERDLVIQVYFACDKNEEAAANILFSDHAD

binding [3]: binds
binding [4]: binds
binding [5]: binds
B2: HA-tagged Ubp12 (Ubp12^6HA) expressed from the endogenous promoter (enzyme, UniProt P39538 1-1254)
chain: MGSSDVSSRECSLVYNEDPDFTDGTTPCDRLGVDLMNVLDDKDEIKQESVPVSDREIEDTESDASAVSSFASANELIAEPHAASETNLGTNGQDGRNVLEQQRDVVARLIEENKETQKEGDKVCIVPKVWYDKFFDPDVTDPEDIGPINTRMICRDFENFVLEDYNRCPYLSIAEPVFNFLSEIYGMTSGSYPVVTNLVINQTTGELETEYNKWFFRLHYLTEKQDGRKRRHGQDDSIMYLSMSALNLVRDLVEKSMNLFFEKADHLDVNAVDFKIWFVSEGSDIATDSNVSTFLNSSYEITPLQFLELPIKKLLIPDMFENRLDKITSNPSDLVIEIKPIEGNHHWPSNYFAYNKLEPASGTTGLVNLGNTCYMNSALQCLVHIPQLRDYFLYDGYEDEINEENPLGYHGYVARAFSDLVQKLFQNRMSIMQRNAAFPPSMFKSTIGHFNSMFSGYMQQDSQEFLAFLLDSLHEDLNRIIKKEYTEKPSLSPGDDVNDWNVVKKLADDTWEMHLKRNCSVITDLFVGMYKSTLYCPECQNVSITFDPYNDVTLPLPVDTVWDKTIKIFPMNSPPLLLEVELSKSSTYMDLKNYVGKMSGLDPNTLFGCEIFSNQIYVNYESTESNAQFLTLQELIKPADDVIFYELPVTNDNEVIVPVLNTRIEKGYKNAMLFGVPFFITLKEDELNNPGAIRMKLQNRFVHLSGGYIPFPEPVGNRTDFADAFPLLVEKYPDVEFEQYKDILQYTSIKVTDKDKSFFSIKILSVEKEQQFASNNRTGPNFWTPISQLNLDKATDIDDKLEDVVKDIYNYSSLVDCAEGVLMQVDDEGDTEGSEAKNFSKPFQSGDDEENKETVTNNENVNNTNDRDEDMELTDDVEEDASTEPELTDKPEALDKIKDSLTSTPFAILSMNDIIVCEWSELGSNEAFSDDKIYNWENPATLPNKELENAKLERSNAKERTITLDDCLQLFSKPEILGLTDSWYCPTCKEHRQATKQIQLWNTPDILLIHLKRFESQRSFSDKIDATVNFPITDLDLSRYVVYKDDPRGLIYDLYAVDNHYGGLGGGHYTAYVKNFADNKWYYFDDSRVTETAPENSIAGSAYLLFYIRRHKDGNGLGSSKLQEIIQKSRHGYDERIKKIYDEQMKLYEFNKTDEEEDVSDDMIECNEDVQAPEYSNRSLEVGHIETQDCNDEDDNDDGERTNSGRRKLRLLKKVYKNNSGLGSSSTSEISEGCPENEVADLNLKNGVTLESPE
